Data: article PMC5045296
No constants are given. Whether binding was seen depends on the method and setting. Binding calls can cover weak binding; strength is not graded here.

Molecular target: β-tubulin (in the GDP-taxol microtubule) (porcine)
Assay: cryo-EM structure; GDP-taxol MTs (4 μM) on the grid, 353WT (28 μM) applied, apyrase (nucleotide-free state); 7.0 Å; both purified

B1: KIF19A-353 (mouse KIF19A motor domain, monomeric construct) (domain or fragment, UniProt Q99PT9 1-353)
chain: MKDSGDSKDQQLMVALRVRPISVAELEEGATLIAHKMDEQMVVLMDPMEDPDDILRAHRSREKSYLFDVAFDFTATQEMVYQATTKSLIEGVISGYNATVFAYGPTGCGKTYTMLGTDHEPGIYVRTLNDLFRAIEETSNDMEYEVSMSYLEIYNEMIRDLLNPALGYLELREDSKGVIQVAGITEVSTINAKEIMQLLMKGNRQRTQEPTAANQTSSRSHAVLQVAVRQRSRVKNILQEVRQGRLFMIDLAGSERASQTQNRGQRMKEGAHINRSLLALGNCINALSDKGSNKYINYRDSKLTRLLKDSLGGNSRTVMIAHISPASTAFEESRNTLTYAGRAKNIRTRVKQN
With B1 the binding was “binds”.
